In PubChem BioAssay AID2685 (National Center for Advancing Translational Sciences (NCATS), 2010):
The list shows a part of the results. Shown are side measurements of this screen, not its main read-out; they come without a call. Compounds called inactive in the main read-out are mostly missing here. Potencies come from curve fits of mixed quality, noted in brackets.

Test: qHTS Assay for Lipid Storage Modulators in Drosophila S3 Cells;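 for cell number change: cells counted by Cell Tracker Red CMTPX staining in the red channel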
Settings: BODIPY lipid droplet fluorescence, 18-24 h; for cell number change: measured here: cell count max response, cells fed with added oleic acid
In short: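 Laser-scanning cytometry quantifies lipid droplet accumulation (500–530 nm total intensity; droplet/cell object ratio) in oleic acid-fed (400 uM added) Drosophila S3 cells treated with a concentration series. 20 uM Triacsin C defined 100% inhibition.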

[1] = measured here: lipid fluorescence (Fed channel) AC50, cells fed with added oleic acid
[2] = measured here: cell number channel AC50, cells fed with added oleic acid

SMILES | cell number change | AC50 [1] | AC50 [2]
NC(=O)c1cccnc1Nc1cccc(F)c1 | 5.84% | 0.206 µM [rising, full curve, poor fit] | 
COc1ccc(NC(=O)CSc2nc3ccccc3c(=O)n2C)cc1 | -12.8% |  | 
CC(=O)c1ccc(NC(=O)C2CCCN(C(=O)c3ccc(Cl)cc3)C2)cc1 (stereo unspecified) | 22.8% |  | 
COc1cc(/C=C(\NC(=O)c2ccccc2)C(=O)NC(C(=O)O)c2ccccc2)cc(OC)c1OC (stereo unspecified) | 25.2% | 29.1 µM [rising, single point] | 
Cc1occc1-c1nnc(SCCNCCO)o1 | -35% | 2.91 µM [falling, full curve] | 2.59 µM [falling, full curve, poor fit]
Cc1cc(OCc2cc(C(=O)N(C)Cc3nonc3C)no2)cc(C)c1Cl | 12.8% | 18.4 µM [rising, partial curve] | 
Cc1ccc(OCCNC(=O)C2CC(=O)N(c3ccc(C)cc3)C2)cc1 (stereo unspecified) | 75.3% |  | 14.6 µM [rising, partial curve, poor fit]
Nc1nc2nccc(-c3ccccn3)n2n1 | -24% |  | 
COc1cc(/C=C(\C#N)c2nc3ccccc3[nH]2)cc(Br)c1OCc1ccc(F)cc1 |  | 4.61 µM [falling, full curve, poor fit] | 4.11 µM [falling, partial curve, poor fit]
COc1cc2c(cc1OC)CN(C(=O)CCNS(=O)(=O)c1ccc(Br)cc1)CC2 | 45.8% | 16.4 µM [rising, partial curve] | 25.9 µM [rising, single point]
Nc1nncn1C(=O)c1ccccc1Cl | -3.01% | 1.64 µM [falling, partial curve] | 0.103 µM [falling, full curve, poor fit]
NS(=O)(=O)c1ccc(CCn2c(=S)[nH]c3ccc(F)cc3c2=O)cc1 | 4.09% |  | 
Cc1ccc(-c2nc(P(=O)(c3ccccc3)c3ccccc3)c(N3CCOCC3)o2)cc1 | -1.73% |  | 
CC(C)(C)OC(=O)NN=C(c1ccc(O)cc1)c1ccc(O)cc1 | 12.3% | 25.9 µM [rising, single point] | 
CCCc1nnc(NC(=O)CC(=O)Nc2ccccc2C(=O)O)s1 |  | 0.092 µM [rising, single point] | 
C=C(C)CSCc1nc2ccccc2[nH]1 | 2.21% | 8.2 µM [falling, partial curve] | 
Cn1cc(Cl)c(C(=O)NC2CCCCCC2)n1 | 108% | 20.6 µM [rising, partial curve, poor fit] | 23.1 µM [rising, partial curve]
CC(C)(C)c1cn(-c2ccccc2)c(=S)[nH]1 | 13.7% | 20.6 µM [rising, partial curve] | 
Cc1cc(NS(=O)(=O)c2cccs2)no1 | 0.623% | 20.6 µM [falling, partial curve] | 
COc1cccc(/C(O)=C2/C(=O)C(=O)N(CCN(C)C)C2c2ccccn2)c1 (stereo unspecified) | -28.8% | 0.366 µM [falling, full curve] | 0.00731 µM [falling, full curve, poor fit]

Copied from the listing, 5 compounds:
SMILES | cell number change | AC50 [1] | AC50 [2]
Nc1nc2nccc(-c3ccccn3)n2n1 | -24% |  | 
COc1cc(/C=C(\C#N)c2nc3ccccc3[nH]2)cc(Br)c1OCc1ccc(F)cc1 |  | 4.61 µM [falling, full curve, poor fit] | 4.11 µM [falling, partial curve, poor fit]
COc1cc2c(cc1OC)CN(C(=O)CCNS(=O)(=O)c1ccc(Br)cc1)CC2 | 45.8% | 16.4 µM [rising, partial curve] | 25.9 µM [rising, single point]
Nc1nncn1C(=O)c1ccccc1Cl | -3.01% | 1.64 µM [falling, partial curve] | 0.103 µM [falling, full curve, poor fit]
NS(=O)(=O)c1ccc(CCn2c(=S)[nH]c3ccc(F)cc3c2=O)cc1 | 4.09% |  | 

Continued:

SMILES | cell number change | AC50 [1] | AC50 [2]
CCC(C(=O)Nc1nccs1)c1ccccc1 (stereo unspecified) | -11.2% |  | 
O=C(O)c1ccc(C(=O)Nc2cccc(NC(=O)C3CCCO3)c2)cc1 (stereo unspecified) | -65.4% | 0.116 µM [falling, full curve] | 29.1 µM [falling, single point]
CCOC(=O)C[N+](CC)(CC)CC#Cc1ccccc1 | 9.21% | 0.146 µM [falling, full curve, poor fit] | 0.146 µM [falling, full curve]
O=C(NC(=S)Nc1cc(Cl)ccc1O)c1cccc(Br)c1 | -41% | 20.6 µM [falling, partial curve] | 13 µM [falling, single point]
COc1ccc2nc(SCC(=O)NCc3ccc(F)cc3)[nH]c2c1 | 14.1% |  | 
O=C(CCCN1C(=O)/C(=C/c2ccccc2Cl)SC1=S)NNC(=O)c1ccccc1 | -11.4% | 32.6 µM [falling, single point] | 
COC(=O)c1ccc(NC(=O)CN(C2CCCCC2)S(C)(=O)=O)cc1 | 8.72% |  | 
C=CCn1c(SCc2cccc(OC)c2)nnc1-c1ccncc1 | -2.38% | 29.1 µM [falling, single point] | 
Cc1cccn2c(=O)nc(SCC(=O)N3CCC(C)CC3)nc12 | 29.7% |  | 
Cc1c(NC(=O)c2ccc3c(c2)OCO3)c(=O)n(-c2ccccc2)n1C | -5.34% | 29.1 µM [falling, single point] | 
Cc1ccc(O)c(C2=NCCNC(C(F)(F)F)=C2)c1 | 0.947% | 4.11 µM [rising, full curve, poor fit] | 
S=c1[nH]ncn1/N=C/c1ccccn1 | -42.3% | 18.4 µM [falling, single point] | 3.66 µM [falling, full curve]
CCC(=O)N(C(=O)CC)N1CCN(c2ccncc2S(=O)(=O)N2CCCCC2)CC1 | -30.8% | 16.4 µM [falling, partial curve, poor fit] | 5.8 µM [falling, single point]
COc1ccc(OC)c2c(C)cc(N3CCCCCC3)nc12 | -3.16% |  | 
CCCN(CC(=O)Nc1ccccc1C)C(=O)c1ccc(N2CCCC2=O)cc1 | 25.7% | 18.4 µM [rising, partial curve] | 
CC(=O)Nc1ccc(S(=O)(=O)N(C)c2ccccc2)cc1 | -7.22% | 0.00517 µM [falling, full curve, poor fit] | 
Cc1cccc(-c2nnc(SCc3ccc(C#N)cc3)n2Cc2ccco2)c1 | -23.8% | 14.6 µM [falling, single point] | 
CC1CCN(C(=O)c2ccc(NS(=O)(=O)c3ccccc3)cc2)CC1 |  | 29.1 µM [falling, single point] | 1.84 µM [falling, partial curve]
O=C(c1ccc(-c2ccc([N+](=O)[O-])cc2)o1)N1CCCCCCC1 | -12.4% |  | 
CN(C)C=Nc1nonc1-c1ncn[nH]1 | 1.02% | 29.1 µM [falling, single point] | 

SMILES | cell number change | AC50 [1] | AC50 [2]
O=C(NCCC1=CCCCC1)c1cccc(S(=O)(=O)N2CCCCC2)c1 |  | 0.326 µM [rising, full curve] | 
CCC(C)NC(=O)c1ccccc1NC(=O)COc1ccc(OC)cc1 (stereo unspecified) |  | 5.8 µM [rising, partial curve] | 1.3 µM [rising, partial curve]
Cc1ccccc1-n1c(C)c(C#N)c(=O)c(-[n+]2ccccc2)c1[S-] | -116% | 23.1 µM [falling, partial curve] | 29.1 µM [falling, single point]
Cc1[nH]nc2oc(=O)c(CCO)c(C)c12 |  | 25.9 µM [falling, single point] | 
COc1ccccc1NS(=O)(=O)c1cccc(C(=O)N2CCN(Cc3ccc4c(c3)OCO4)CC2)c1 | 49% | 6.51 µM [rising, single point] | 6.51 µM [rising, full curve]
Cc1no[n+]([O-])c1COc1ccc(/C=N/n2nnnc2N)cc1 | -51.7% | 0.651 µM [falling, full curve, poor fit] | 32.6 µM [falling, single point]
C[C@@H]1NC(=O)c2cc([N+](=O)[O-])cc(I)c2NCCCC[C@@H](C(N)=O)NC(=O)[C@H](CCC(=O)O)NC1=O |  | 2.91 µM [falling, partial curve, poor fit] | 4.11 µM [falling, partial curve, poor fit]
O=C(CSc1nc(O)cc(=O)n1-c1ccccc1)NC1CCCCC1 | 35% | 0.58 µM [falling, single point] | 8.2 µM [rising, partial curve, poor fit]
CCN(CC)CCn1c2c(c(SCC(=O)Nc3ccc4c(c3)OCO4)nc1=O)CCC2 |  | 6.51 µM [rising, single point] | 
COc1cc2ccccc2cc1C(=O)Nc1ccncc1 | -7.78% | 6.51 µM [falling, single point] | 
CN(/N=C/c1ccco1)C1=NS(=O)(=O)c2ccccc21 | 3.48% | 0.092 µM [falling, full curve, poor fit] | 0.092 µM [falling, full curve, poor fit]
CCCCNC(=O)[C@H]1C[C@H]1[C@@H](O)[C@H](CO)NC(=O)[C@H](COCc1ccccc1)NC(=O)OC(C)(C)C | -0.299% |  | 
C/C(=N\N=C(/N)SC1CC(=O)N(c2ccccc2)C1=O)c1cccs1 (stereo unspecified) | -39.4% | 29.1 µM [falling, partial curve, poor fit] | 32.6 µM [falling, partial curve, poor fit]
Clc1cc(Br)ccc1OCCN1CCOCC1 | 49% | 16.4 µM [rising, partial curve] | 9.2 µM [rising, partial curve]
CC(C)Cc1ccc(C(C)C(=O)Nc2ncccn2)cc1 (stereo unspecified) | -13.7% |  | 0.13 µM [rising, partial curve, poor fit]
O=C(O)CC(SCC(=O)NC1CCCc2ccccc21)C(=O)O (stereo unspecified) | -24.9% | 9.2 µM [falling, partial curve] | 
Clc1ccc(C2=NCCn3nc4ccccc4c32)cc1 | -3.5% | 6.51 µM [falling, single point] | 
CN(C)c1ccc(/C=N/NC(=O)c2ccc(CN3CCOCC3)cc2)cc1Br |  |  | 0.82 µM [rising, single point]
